Measurements as given in the supplement of paper PMC12595434, “Development of retinoid nuclear receptor pathway antagonists through targeting aldehyde dehydrogenase 1A3” (iScience, 2025).
The other results are listed elsewhere or left out. Single values of this set are uncertain.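 Many melting curves are irregular; where none melted, Tm was taken as 64 °C.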

Amino acid sequences for entries named in this document (tags omitted). A change or cut given only in a name is not applied to a line headed by its entry.
UniProt Q9NVV4: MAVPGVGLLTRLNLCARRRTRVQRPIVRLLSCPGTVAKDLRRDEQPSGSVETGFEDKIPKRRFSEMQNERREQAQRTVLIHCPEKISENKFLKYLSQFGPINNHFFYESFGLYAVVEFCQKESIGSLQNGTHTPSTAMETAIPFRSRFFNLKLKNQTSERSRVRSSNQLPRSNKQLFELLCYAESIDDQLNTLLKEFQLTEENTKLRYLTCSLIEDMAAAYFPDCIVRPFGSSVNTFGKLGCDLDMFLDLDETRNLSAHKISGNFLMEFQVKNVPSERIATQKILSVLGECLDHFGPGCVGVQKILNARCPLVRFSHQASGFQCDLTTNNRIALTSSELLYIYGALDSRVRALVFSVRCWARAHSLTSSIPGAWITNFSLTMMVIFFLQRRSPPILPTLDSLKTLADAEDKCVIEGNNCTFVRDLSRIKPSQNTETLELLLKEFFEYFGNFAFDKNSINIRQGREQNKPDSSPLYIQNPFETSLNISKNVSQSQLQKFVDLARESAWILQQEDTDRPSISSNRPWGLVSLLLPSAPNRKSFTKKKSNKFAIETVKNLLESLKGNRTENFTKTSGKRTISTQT
UniProt Q9P2T1: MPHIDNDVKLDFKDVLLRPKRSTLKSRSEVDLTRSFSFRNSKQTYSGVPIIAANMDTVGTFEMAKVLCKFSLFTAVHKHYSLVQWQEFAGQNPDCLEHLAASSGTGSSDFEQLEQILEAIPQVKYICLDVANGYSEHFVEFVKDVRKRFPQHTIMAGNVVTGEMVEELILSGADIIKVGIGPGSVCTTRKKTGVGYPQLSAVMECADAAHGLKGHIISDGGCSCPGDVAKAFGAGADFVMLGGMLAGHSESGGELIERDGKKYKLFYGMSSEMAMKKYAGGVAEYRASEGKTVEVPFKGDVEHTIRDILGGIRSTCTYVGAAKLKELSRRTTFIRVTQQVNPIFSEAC
UniProt Q9P2N5: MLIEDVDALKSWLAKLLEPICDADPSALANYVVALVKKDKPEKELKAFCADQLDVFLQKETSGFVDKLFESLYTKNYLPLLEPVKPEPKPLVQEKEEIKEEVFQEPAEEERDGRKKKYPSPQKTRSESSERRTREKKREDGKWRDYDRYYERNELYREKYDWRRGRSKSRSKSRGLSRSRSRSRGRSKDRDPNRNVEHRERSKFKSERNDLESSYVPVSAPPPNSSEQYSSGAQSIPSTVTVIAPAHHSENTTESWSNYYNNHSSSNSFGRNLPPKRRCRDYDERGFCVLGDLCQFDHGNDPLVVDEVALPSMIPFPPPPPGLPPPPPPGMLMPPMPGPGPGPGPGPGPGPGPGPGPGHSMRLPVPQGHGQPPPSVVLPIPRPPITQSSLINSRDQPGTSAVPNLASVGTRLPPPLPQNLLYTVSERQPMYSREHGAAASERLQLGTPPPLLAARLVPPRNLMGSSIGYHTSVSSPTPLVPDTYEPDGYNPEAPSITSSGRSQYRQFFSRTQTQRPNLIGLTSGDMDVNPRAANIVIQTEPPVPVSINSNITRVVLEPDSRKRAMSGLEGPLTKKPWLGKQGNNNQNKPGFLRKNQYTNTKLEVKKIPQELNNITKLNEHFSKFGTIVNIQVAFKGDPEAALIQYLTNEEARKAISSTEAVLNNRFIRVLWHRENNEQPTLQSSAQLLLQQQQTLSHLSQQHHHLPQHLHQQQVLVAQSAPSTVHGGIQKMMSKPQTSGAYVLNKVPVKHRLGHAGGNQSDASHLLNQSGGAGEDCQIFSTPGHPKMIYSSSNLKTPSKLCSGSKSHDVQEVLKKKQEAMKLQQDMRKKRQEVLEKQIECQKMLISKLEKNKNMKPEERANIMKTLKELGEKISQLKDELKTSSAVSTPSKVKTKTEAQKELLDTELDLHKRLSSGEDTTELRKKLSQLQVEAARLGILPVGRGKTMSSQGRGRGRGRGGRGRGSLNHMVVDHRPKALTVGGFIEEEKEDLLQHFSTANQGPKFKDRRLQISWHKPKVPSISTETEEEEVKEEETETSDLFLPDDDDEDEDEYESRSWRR
UniProt Q9NXW2: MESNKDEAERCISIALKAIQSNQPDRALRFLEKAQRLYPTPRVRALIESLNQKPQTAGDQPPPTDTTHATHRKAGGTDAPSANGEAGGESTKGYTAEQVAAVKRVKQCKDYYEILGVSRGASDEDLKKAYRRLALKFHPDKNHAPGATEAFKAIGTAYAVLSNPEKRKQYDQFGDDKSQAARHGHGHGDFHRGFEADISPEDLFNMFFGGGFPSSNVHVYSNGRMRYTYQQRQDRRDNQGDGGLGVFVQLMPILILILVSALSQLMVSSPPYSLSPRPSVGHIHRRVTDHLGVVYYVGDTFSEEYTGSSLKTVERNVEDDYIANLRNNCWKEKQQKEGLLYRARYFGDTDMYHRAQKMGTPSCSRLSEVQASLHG
UniProt Q9NZB2: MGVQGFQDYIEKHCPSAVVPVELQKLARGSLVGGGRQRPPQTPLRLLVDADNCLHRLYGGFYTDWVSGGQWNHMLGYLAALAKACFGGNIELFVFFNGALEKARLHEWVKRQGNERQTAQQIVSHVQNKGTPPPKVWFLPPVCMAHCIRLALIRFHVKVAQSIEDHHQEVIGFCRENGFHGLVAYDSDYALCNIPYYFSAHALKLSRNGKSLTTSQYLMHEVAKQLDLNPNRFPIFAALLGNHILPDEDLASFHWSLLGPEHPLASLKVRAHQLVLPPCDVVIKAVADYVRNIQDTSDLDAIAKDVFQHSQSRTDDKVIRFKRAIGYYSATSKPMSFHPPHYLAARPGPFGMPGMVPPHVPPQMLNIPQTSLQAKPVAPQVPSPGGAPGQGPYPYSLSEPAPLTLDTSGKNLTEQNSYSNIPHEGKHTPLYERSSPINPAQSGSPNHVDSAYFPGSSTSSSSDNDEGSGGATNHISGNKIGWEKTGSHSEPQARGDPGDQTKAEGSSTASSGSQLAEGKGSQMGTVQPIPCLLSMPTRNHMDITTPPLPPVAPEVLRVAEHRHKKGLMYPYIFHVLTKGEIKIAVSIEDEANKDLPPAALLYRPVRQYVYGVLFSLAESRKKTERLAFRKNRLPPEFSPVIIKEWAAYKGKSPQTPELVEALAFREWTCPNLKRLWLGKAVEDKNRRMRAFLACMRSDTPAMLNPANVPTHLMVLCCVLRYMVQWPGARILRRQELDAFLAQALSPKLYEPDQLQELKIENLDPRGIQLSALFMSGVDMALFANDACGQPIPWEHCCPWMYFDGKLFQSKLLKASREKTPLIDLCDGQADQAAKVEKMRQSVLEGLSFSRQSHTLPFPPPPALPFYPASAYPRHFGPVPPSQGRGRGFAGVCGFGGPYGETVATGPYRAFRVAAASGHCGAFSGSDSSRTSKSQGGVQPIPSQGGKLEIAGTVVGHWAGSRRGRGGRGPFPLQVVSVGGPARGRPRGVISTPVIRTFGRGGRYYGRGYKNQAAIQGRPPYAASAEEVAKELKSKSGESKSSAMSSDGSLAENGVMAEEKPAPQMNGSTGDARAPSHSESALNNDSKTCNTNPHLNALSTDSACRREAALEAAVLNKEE
UniProt Q9NZD8: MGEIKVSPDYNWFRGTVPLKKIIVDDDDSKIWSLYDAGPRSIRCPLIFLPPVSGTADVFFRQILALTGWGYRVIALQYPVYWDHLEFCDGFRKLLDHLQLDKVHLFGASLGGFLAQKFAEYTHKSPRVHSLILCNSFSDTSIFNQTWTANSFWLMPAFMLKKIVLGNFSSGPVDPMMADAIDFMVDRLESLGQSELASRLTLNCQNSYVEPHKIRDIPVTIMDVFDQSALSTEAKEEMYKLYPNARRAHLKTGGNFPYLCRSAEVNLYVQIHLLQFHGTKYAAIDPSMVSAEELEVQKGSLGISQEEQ
UniProt Q9UBF2: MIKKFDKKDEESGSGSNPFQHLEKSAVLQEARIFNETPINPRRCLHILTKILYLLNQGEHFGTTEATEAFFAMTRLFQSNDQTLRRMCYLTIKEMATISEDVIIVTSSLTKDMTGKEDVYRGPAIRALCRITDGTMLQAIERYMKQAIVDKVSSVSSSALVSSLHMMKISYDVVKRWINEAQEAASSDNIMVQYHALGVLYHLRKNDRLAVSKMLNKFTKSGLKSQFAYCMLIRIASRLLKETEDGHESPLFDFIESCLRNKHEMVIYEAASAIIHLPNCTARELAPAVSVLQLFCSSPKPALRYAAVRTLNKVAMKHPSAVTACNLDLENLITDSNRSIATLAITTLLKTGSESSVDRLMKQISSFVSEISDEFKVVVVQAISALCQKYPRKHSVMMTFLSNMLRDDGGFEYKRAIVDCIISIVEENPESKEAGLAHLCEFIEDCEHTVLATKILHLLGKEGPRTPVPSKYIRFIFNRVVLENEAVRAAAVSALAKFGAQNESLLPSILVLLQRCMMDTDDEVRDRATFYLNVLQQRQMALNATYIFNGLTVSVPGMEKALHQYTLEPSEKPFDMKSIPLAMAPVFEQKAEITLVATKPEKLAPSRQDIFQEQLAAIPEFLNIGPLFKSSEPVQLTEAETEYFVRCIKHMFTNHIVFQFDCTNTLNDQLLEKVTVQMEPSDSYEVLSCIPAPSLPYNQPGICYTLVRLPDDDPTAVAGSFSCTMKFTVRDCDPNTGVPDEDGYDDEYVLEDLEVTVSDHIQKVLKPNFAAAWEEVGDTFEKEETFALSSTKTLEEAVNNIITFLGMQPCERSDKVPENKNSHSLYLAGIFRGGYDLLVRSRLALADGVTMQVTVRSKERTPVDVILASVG
UniProt Q9UBG0: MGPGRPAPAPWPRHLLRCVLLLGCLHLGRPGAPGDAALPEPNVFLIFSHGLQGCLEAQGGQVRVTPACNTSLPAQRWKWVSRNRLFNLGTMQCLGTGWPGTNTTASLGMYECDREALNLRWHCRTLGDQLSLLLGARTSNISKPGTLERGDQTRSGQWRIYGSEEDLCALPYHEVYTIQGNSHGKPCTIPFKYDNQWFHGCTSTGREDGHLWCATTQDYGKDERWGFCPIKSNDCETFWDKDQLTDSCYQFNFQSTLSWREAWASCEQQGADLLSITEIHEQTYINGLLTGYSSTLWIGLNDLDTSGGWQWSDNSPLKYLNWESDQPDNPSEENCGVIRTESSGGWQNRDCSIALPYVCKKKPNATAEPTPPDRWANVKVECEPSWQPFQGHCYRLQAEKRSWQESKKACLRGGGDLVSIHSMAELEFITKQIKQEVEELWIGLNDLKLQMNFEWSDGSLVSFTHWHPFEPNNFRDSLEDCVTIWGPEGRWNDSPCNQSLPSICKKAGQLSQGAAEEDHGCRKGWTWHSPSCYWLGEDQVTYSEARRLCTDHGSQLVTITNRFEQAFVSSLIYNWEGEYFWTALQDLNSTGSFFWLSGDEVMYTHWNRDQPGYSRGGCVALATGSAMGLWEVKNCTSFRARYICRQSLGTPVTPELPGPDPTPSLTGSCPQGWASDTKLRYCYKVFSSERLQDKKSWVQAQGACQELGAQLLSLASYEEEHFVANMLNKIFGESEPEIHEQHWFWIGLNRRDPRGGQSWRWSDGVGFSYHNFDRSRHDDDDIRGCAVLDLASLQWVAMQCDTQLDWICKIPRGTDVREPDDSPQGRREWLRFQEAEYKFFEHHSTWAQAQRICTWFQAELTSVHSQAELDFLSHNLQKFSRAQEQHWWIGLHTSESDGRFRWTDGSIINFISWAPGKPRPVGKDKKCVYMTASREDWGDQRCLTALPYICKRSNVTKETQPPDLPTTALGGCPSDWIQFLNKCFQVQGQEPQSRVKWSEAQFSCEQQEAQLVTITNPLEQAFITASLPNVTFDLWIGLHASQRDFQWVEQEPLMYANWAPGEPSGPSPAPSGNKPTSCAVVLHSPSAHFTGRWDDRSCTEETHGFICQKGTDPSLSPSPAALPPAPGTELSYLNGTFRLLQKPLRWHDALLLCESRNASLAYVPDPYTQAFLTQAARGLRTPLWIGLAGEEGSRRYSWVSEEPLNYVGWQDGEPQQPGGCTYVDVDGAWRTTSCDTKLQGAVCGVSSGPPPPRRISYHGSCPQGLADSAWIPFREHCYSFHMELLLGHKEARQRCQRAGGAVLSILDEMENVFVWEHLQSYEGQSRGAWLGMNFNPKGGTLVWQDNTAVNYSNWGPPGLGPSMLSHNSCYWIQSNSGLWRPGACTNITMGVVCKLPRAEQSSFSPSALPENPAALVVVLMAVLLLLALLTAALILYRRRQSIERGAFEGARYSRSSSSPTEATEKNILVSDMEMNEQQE
UniProt Q9P289: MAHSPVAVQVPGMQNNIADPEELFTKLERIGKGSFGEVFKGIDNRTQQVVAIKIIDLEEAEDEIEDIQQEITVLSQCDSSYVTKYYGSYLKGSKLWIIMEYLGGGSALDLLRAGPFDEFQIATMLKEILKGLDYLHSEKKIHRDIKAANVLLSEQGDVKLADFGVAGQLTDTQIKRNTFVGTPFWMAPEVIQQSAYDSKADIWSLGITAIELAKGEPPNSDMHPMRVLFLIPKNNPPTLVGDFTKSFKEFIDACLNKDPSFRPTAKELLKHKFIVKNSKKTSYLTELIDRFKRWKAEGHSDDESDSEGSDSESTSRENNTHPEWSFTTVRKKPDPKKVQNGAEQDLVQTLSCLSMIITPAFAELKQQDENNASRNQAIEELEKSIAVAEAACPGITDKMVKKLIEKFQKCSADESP

Compound: CCc1cnccc1C(=O)Nc1cc2c(cc1F)NC(=O)CC2
Test: melting temperature shift (DMSO Tm minus MBE1-treated Tm) in cellular thermal proteome profiling; higher = less thermal stabilization by MBE1 (negative = stabilized by MBE1)
Settings: A375

Target	melting temperature shift (MBE1 concentration: 100 nM)	melting temperature shift (MBE1 concentration: 1 uM)
UniProt Q9UBS9	0.116 °C	0.765 °C
GNL3L (UniProt Q9NVN8)	-0.474 °C	-0.602 °C
GAR1 (UniProt Q9NY12)	-2.74 °C	–
TMEM38B (UniProt Q9NVV0)	–	-1.89 °C
NKIRAS2 (UniProt Q9NYR9)	2.12 °C	–
LARS (UniProt Q9P2J5)	-0.706 °C	-0.409 °C
USP36 (UniProt Q9P275)	-0.772 °C	-0.621 °C
KIAA1522 (UniProt Q9P206)	-1.78 °C	-0.0604 °C
MTPAP (UniProt Q9NVV4)	-0.16 °C	-0.98 °C
GMPR2 (UniProt Q9P2T1)	–	-3.15 °C
CXXC1 (UniProt Q9P0U4)	-0.333 °C	–
UniProt Q9NX01	0.782 °C	–
UniProt Q9P0U3	–	-0.48 °C
TMOD3 (UniProt Q9NYL9)	0.249 °C	-0.183 °C
C1ORF123 (UniProt Q9NWV4)	0.194 °C	0.161 °C
UniProt Q9NX04	1.34 °C	–
UniProt Q9NYG2	0.299 °C	–
RBM27 (UniProt Q9P2N5)	-0.861 °C	-0.814 °C
UniProt Q9P212	5.94 °C	–
TERF2IP (UniProt Q9NYB0)	0.812 °C	-0.122 °C
PAG1 (UniProt Q9NWQ8)	–	-2.96 °C
UniProt Q9NWT8	–	-2.34 °C
RBM28 (UniProt Q9NW13)	0.0769 °C	-0.199 °C
PDP1 (UniProt Q9P0J1)	-0.161 °C	0.922 °C

Target	melting temperature shift (MBE1 concentration: 100 nM)	melting temperature shift (MBE1 concentration: 1 uM)
MARK1 (UniProt Q9P0L2)	-0.983 °C	-1.87 °C
VPS18 (UniProt Q9P253)	0.153 °C	-0.0488 °C
DNAJB12 (UniProt Q9NXW2)	-0.397 °C	0.769 °C
UniProt Q9UBP9	-0.527 °C	-0.565 °C
UniProt Q9NZC7	-0.849 °C	0.235 °C
ADD3 (UniProt Q9UEY8)	-3.58 °C	0.389 °C
FBXL12 (UniProt Q9NXK8)	-1.56 °C	-0.478 °C
UniProt Q9UBF8	-0.738 °C	0.167 °C
FAM120C (UniProt Q9NX05)	0.916 °C	0.525 °C
MRPL22 (UniProt Q9NWU5)	-3.48 °C	-3.82 °C
UniProt Q9NW97	–	-3 °C
UQCR10 (UniProt Q9UDW1)	-1.65 °C	0.11 °C
UniProt Q9NW81	0.57 °C	–
CFAP97 (UniProt Q9P2B7)	2.4 °C	1.35 °C
MALT1 (UniProt Q9UDY8)	-1.11 °C	-0.725 °C
UniProt Q9NX18	1.9 °C	3.49 °C
UniProt Q9NX08	1.4 °C	0.623 °C
ASF1B (UniProt Q9NVP2)	-0.852 °C	0.273 °C
SLAIN2 (UniProt Q9P270)	-3.2 °C	-0.369 °C
RAI14 (UniProt Q9P0K7)	-0.654 °C	-0.343 °C
QPCTL (UniProt Q9NXS2)	0.0738 °C	-0.16 °C
FGFR1OP2 (UniProt Q9NVK5)	0.556 °C	-0.507 °C
CHMP5 (UniProt Q9NZZ3)	-4.17 °C	-4.39 °C
KLHL11 (UniProt Q9NVR0)	-0.299 °C	0.812 °C

Full records from above. Order of values: melting temperature shift (MBE1 concentration: 100 nM)	melting temperature shift (MBE1 concentration: 1 uM)
UniProt Q9NW97 is entered as –	-3 °C
CXXC1 (UniProt Q9P0U4) is entered as -0.333 °C	–
C1ORF123 (UniProt Q9NWV4) is entered as 0.194 °C	0.161 °C
VPS18 (UniProt Q9P253) is entered as 0.153 °C	-0.0488 °C

Next results follow:

Target	melting temperature shift (MBE1 concentration: 100 nM)	melting temperature shift (MBE1 concentration: 1 uM)
DDX56 (UniProt Q9NY93)	-0.00611 °C	0.0122 °C
UniProt Q9UBS0	0.0448 °C	-0.0384 °C
UniProt Q9NXR8	-1.59 °C	0.0192 °C
RERE (UniProt Q9P2R6)	-2.3 °C	-5.19 °C
HYPK (UniProt Q9NX55)	-2.89 °C	-0.0855 °C
KLHL42 (UniProt Q9P2K6)	-0.0855 °C	0.605 °C
CTTNBP2NL (UniProt Q9P2B4)	0.33 °C	-0.179 °C
GRHPR (UniProt Q9UBQ7)	-0.114 °C	0.0805 °C
NHP2 (UniProt Q9NX24)	1.04 °C	1.7 °C
MRPL39 (UniProt Q9NYK5)	0.678 °C	0.22 °C
PRMT7 (UniProt Q9NVM4)	-0.198 °C	-0.908 °C
ASH2L (UniProt Q9UBL3)	0.818 °C	0.208 °C
IBTK (UniProt Q9P2D0)	1.06 °C	0.934 °C
CPSF2 (UniProt Q9P2I0)	-1.05 °C	-0.315 °C
MRPL16 (UniProt Q9NX20)	0.568 °C	0.415 °C
OGFR (UniProt Q9NZT2)	-0.756 °C	-0.237 °C
FAM120A (UniProt Q9NZB2)	-0.402 °C	0.443 °C
TMEM181 (UniProt Q9P2C4)	-4.33 °C	-4.33 °C
UniProt Q9P2X0	1.11 °C	1.5 °C
SACS (UniProt Q9NZJ4)	-1.02 °C	-1.27 °C
SPG21 (UniProt Q9NZD8)	0.202 °C	-0.641 °C
MIOS (UniProt Q9NXC5)	-0.859 °C	0.22 °C
ORC3 (UniProt Q9UBD5)	-0.327 °C	-0.186 °C
DNAAF2 (UniProt Q9NVR5)	-0.153 °C	-0.415 °C

Target	melting temperature shift (MBE1 concentration: 100 nM)	melting temperature shift (MBE1 concentration: 1 uM)
FAIM (UniProt Q9NVQ4)	-0.546 °C	-0.376 °C
CDKN2AIP (UniProt Q9NXV6)	0.324 °C	-0.116 °C
KBTBD4 (UniProt Q9NVX7)	0.168 °C	0.852 °C
CLIP2 (UniProt Q9UDT6)	0.537 °C	0.318 °C
XPR1 (UniProt Q9UBH6)	-0.275 °C	0.161 °C
TENM3 (UniProt Q9P273)	-2.23 °C	-0.25 °C
BCCIP (UniProt Q9P287)	0.287 °C	0.476 °C
UniProt Q9P2D1	-6.64 °C	-3.76 °C
PTGFRN (UniProt Q9P2B2)	-3.39 °C	-3 °C
EIF2AK3 (UniProt Q9NZJ5)	-2.63 °C	-2.16 °C
UniProt Q9NZR1	-0.0977 °C	0.0366 °C
UniProt Q9NY61	-0.0192 °C	-0.41 °C
HSPBP1 (UniProt Q9NZL4)	0.946 °C	0.641 °C
NXF1 (UniProt Q9UBU9)	-0.243 °C	-0.128 °C
GLTSCR2 (UniProt Q9NZM5)	-1.76 °C	-0.496 °C
ATAD3A (UniProt Q9NVI7)	-0.125 °C	-0.119 °C
COPG2 (UniProt Q9UBF2)	-0.57 °C	0.0733 °C
UniProt Q9UFG5	-2.24 °C	-5.56 °C
HIF1AN (UniProt Q9NWT6)	-1.39 °C	-0.324 °C
BABAM1 (UniProt Q9NWV8)	-1.07 °C	0.691 °C
DDX18 (UniProt Q9NVP1)	0.989 °C	0.171 °C
UniProt Q9NVR2	0.721 °C	0.562 °C
CTNNAL1 (UniProt Q9UBT7)	-0.79 °C	-0.837 °C
UniProt Q9UBG0	-1.09 °C	0.682 °C

Target	melting temperature shift (MBE1 concentration: 100 nM)	melting temperature shift (MBE1 concentration: 1 uM)
TRMT1 (UniProt Q9NXH9)	-1.27 °C	-0.636 °C
CNTLN (UniProt Q9NXG0)	0 °C	1.75 °C
UniProt Q9NYL2	-0.295 °C	0.161 °C
ZNFX1 (UniProt Q9P2E3)	-0.743 °C	-0.0488 °C
NLE1 (UniProt Q9NVX2)	-3.85 °C	-2.94 °C
MRPL27 (UniProt Q9P0M9)	0.0611 °C	-0.946 °C
EMC3 (UniProt Q9P0I2)	-0.523 °C	0.657 °C
ARL8B (UniProt Q9NVJ2)	-2.68 °C	-2.86 °C
UniProt Q9P0V9	-0.852 °C	0.533 °C
ARHGEF12 (UniProt Q9NZN5)	-1.51 °C	-1.28 °C
RRN3 (UniProt Q9NYV6)	-1.31 °C	-0.349 °C
MYOF (UniProt Q9NZM1)	-0.617 °C	0.0738 °C
COPS7A (UniProt Q9UBW8)	-0.49 °C	-0.51 °C
CHPF2 (UniProt Q9P2E5)	-0.371 °C	0.256 °C
HEATR5B (UniProt Q9P2D3)	1.2 °C	0.0305 °C
SDAD1 (UniProt Q9NVU7)	-0.761 °C	0.259 °C
UniProt Q9P289	0.736 °C	-0.0916 °C
ADPRHL2 (UniProt Q9NX46)	-0.537 °C	0.396 °C
GID8 (UniProt Q9NWU2)	1.31 °C	0.336 °C
POLR3E (UniProt Q9NVU0)	-1.02 °C	-0.976 °C
UniProt Q9P2N6	0.855 °C	1.14 °C
SEL1L (UniProt Q9UBV2)	-1.54 °C	0.161 °C
UniProt Q9NXE8	-2.67 °C	-0.496 °C
UBA2 (UniProt Q9UBT2)	-0.585 °C	0.0611 °C
